According to patent EP4643869A1, “USE OF GNRH ANTAGONISTS SUCH AS TEVERELIX TO TREAT ACUTE URINARY RETENTION” (Antev Limited, priority 2024, dated 2025):
Where “and” joins values, the source holds several entries; their conditions need not be identical. Equal values may be shown once. Where a name gives a salt, the structure may show the parent alone. At least one peptide structure holds a part that was inferred or is arguable (an end, a ring closure or a residue). Where a SMILES comes first, the peptide text is derived from it. [ ]: non-standard residue; d: D form. dPhe(4-Cl) = N[C@H](Cc1ccc(Cl)cc1)C(=O)O; d2Nal = N[C@H](Cc1ccc2ccccc2c1)C(=O)O; d(hCit) = NC(=O)NCCCC[C@@H](N)C(=O)O; Lys(iPr) = CC(C)NCCCC[C@H](N)C(=O)O; d3Pal = N[C@H](Cc1cccnc1)C(=O)O

Legend:
[1] = test system: patients 50 years or over, with BPH and bothersome voiding symptoms; assay: International Prostate Symptom Score (IPSS) in randomised, double-blind, placebo-controlled phase 2 study (Experiment I); format: in vivo, human; conditions: for Adjusted mean change from baseline in the International Prostate Symptom Score / Adjusted treatment difference (95% CI) in IPSS change: ANCOVA; for Adjusted mean change from baseline in the International Prostate Symptom Score / Mean change from baseline in the International Prostate Symptom Score, Mean (SD): two s.c. injections of 60 mg 48 h apart; for Treatment difference of mean change in IPSS (teverelix vs placebo): unadjusted means; for Adjusted treatment difference (95% CI) in IPSS change: vs placebo; for subjects with clinically relevant reduction in the IPSS: reduction of three or more points
[2] = test system: patients 50 years or over, with BPH and bothersome voiding symptoms; assay: Urinary flow rate by uroflow meters (Experiment I); format: in vivo, human
[3] = test system: patients 50 years or over, with BPH and bothersome voiding symptoms; assay: Prostatic volume via transrectal ultrasound (Experiment I); format: in vivo, human
[4] = test system: patients 50 years or over, with BPH and bothersome voiding symptoms; assay: Quality of life score, last IPSS question (Experiment I); format: in vivo, human
[5] = test system: patients 50 years or over, with BPH and bothersome voiding symptoms; assay: Investigator rating of efficacy and tolerability at final assessment (Experiment I); format: in vivo, human
Protocol: This was a multicentre (n=8), randomised, double-blind, placebo-controlled study in treatment of patients 50 years or over, with BPH and bothersome voiding symptoms characterized as an International Prostate Symptom Score (IPSS score ≥13) and a uroflow <13 mL/sec for a voided volume ≥150 mL. Exclusion criteria included an urgent need for prostate surgery, elevated prostate specific antigen (PSA) levels above the upper limit of normal relative to age, major organ dysfunction, prior surgical treatment of the prostate or bladder, and a large residual urine volume (>350 mL).
The study comprised two periods: a four-week single-blind placebo run-in period for all patients to remove any placebo responders and reduce between-patient variability in baseline measurements. This was followed by a 16-week randomised, double-blind, placebo-controlled, parallel group period for eligible patients. Following screening (Day-28), patients entered the placebo run-in period and received two subcutaneous injections of placebo, 48 h apart. During this period, one visit was planned for training purposes (e.g., IPSS). […]
At the final assessment, the investigator assessed efficacy and tolerability as either very good/good, satisfactory, poor/insufficient, or not assessable.

[6] = test system: testosterone; assay: Testosterone in blood samples (Experiment I); format: in vivo, human
[7] = test system: PSA; assay: PSA concentration (Experiment I); format: in vivo, human; conditions: final assessment
[8] = test system: testosterone; assay: PKPD of single-dose teverelix-TFA, subcutaneous or intramuscular; format: in vivo; conditions: single 90 mg intramuscular injection; for around four weeks

## CC(=O)N[C@H](Cc1ccc2ccccc2c1)C(=O)N[C@H](Cc1ccc(Cl)cc1)C(=O)N[C@H](Cc1cccnc1)C(=O)N[C@@H](CO)C(=O)N[C@@H](Cc1ccc(O)cc1)C(=O)N[C@H](CCCCNC(N)=O)C(=O)N[C@@H](CC(C)C)C(=O)N[C@@H](CCCCNC(C)C)C(=O)N1CCC[C@H]1C(=O)N[C@H](C)C(N)=O [teverelix, N-Ac-d-Nal^1,d-pCl-Phe^2,d-Pal^3,d-(Hci)^6,Lys(iPr)^8,d-Ala^10 trifluoroacetate] (Ac-[d2Nal][dPhe(4-Cl)][d3Pal]SY[d(hCit)]L[Lys(iPr)]P[dA]-NH2)
[1]; 4 weeks after first administration (summary)
  subjects reporting a clinically relevant (>3 point) reduction in I-PSS: ~ 44%
[1]; Week 2
  Adjusted mean change from baseline in the International Prostate Symptom Score: -2.1
  Mean change from baseline in the International Prostate Symptom Score, Mean (SD): -2.4 (3.2), 40
  Treatment difference of mean change in IPSS (teverelix vs placebo): -1.6
  Adjusted treatment difference (95% CI) in IPSS change: -1.6 (-2.6; -0.5)
[1]; Week 2, ±17.4%
  mean percentage change in the IPSS: 13.0%
[1]; Week 4
  Adjusted mean change from baseline in the International Prostate Symptom Score: -4.4
  Mean change from baseline in the International Prostate Symptom Score, Mean (SD): -4.5 (3.7), 41
  Treatment difference of mean change in IPSS (teverelix vs placebo): -3.6
  Adjusted treatment difference (95% CI) in IPSS change: -3.3 (-4.6; -2.0)
[1]; Week 8
  Adjusted mean change from baseline in the International Prostate Symptom Score: -5.2
  Mean change from baseline in the International Prostate Symptom Score, Mean (SD): -5.4 (4.2), 41
  Treatment difference of mean change in IPSS (teverelix vs placebo): -4.2
  Adjusted treatment difference (95% CI) in IPSS change: -3.9 (-5.2; -2.5)
[1]; Week 12
  Adjusted mean change from baseline in the International Prostate Symptom Score: -5.6
  Mean change from baseline in the International Prostate Symptom Score, Mean (SD): -5.7 (4.5), 41
  Treatment difference of mean change in IPSS (teverelix vs placebo): -4.3
  Adjusted treatment difference (95% CI) in IPSS change: -3.9 (-5.5; -2.4)
[1]; Week 16 (final assessment)
  Adjusted mean change from baseline in the International Prostate Symptom Score: -6.3
  Mean change from baseline in the International Prostate Symptom Score, Mean (SD): -6.3 (3.9), 41
  Treatment difference of mean change in IPSS (teverelix vs placebo): -5.2
  Adjusted treatment difference (95% CI) in IPSS change: -4.9 (-6.1; -3.6)
[1]; Week 16 (summary)
  subjects reporting a clinically relevant (>3 point) reduction in I-PSS: 83%
[1]; Week 16
  subjects with clinically relevant reduction in the IPSS: 82.9%
[1]; by Week 2
  subjects with clinically relevant reduction in the IPSS: 43.9%
[1]; by Week 4
  subjects with clinically relevant reduction in the IPSS: 75.6%
[1]; by Week 8 (summary)
  subjects reporting a clinically relevant (>3 point) reduction in I-PSS: 76%
[1]; by Week 12 (summary)
  subjects reporting a clinically relevant (>3 point) reduction in I-PSS: 83%
[1]; final assessment (Week 16), SD ±3.9
  mean score reduction (IPSS): 6.3
[1]; final assessment, ±20.0%
  mean percentage change in the IPSS: 34.5%
[1]; summary of Experiment I
  onset of effect: ≤ 2 weeks
[2]; final assessment, ±2.7 mL/sec
  Qmax (paragraph on absolute change in mean urinary flow rate): 2.0 mL/s
[2]; final assessment, ±3.9 mL/sec, two s.c. injections of 60 mg 48 h apart
  Qmax: 3.7 mL/s
[2]; summary of Experiment I
  improvement in uroflow: 40%
[2]; throughout the study
  increase in Qmax rate compared to placebo group: at least a three times greater increase
[3]; Week 4, SD ±7.7
  absolute change in total prostatic volume (mean): -5.88 cm^3
[3]; final assessment, ±9.4 cm^3
  decrease of mean total prostatic volume: 5.7 cm^3
[3]; two s.c. injections of 60 mg 48 hours apart, within four weeks
  reduction in prostate volume: 11% and 11.5%
[4]; Week 2
  likelihood of a favourable QoL response compared to the placebo group: more than twice as likely
[4]; Week 4, 95% CI: 1.53, 9.27
  QoL score odds ratio vs placebo: 3.76
[4]; Week 8, 95% CI: 2.58, 18.11
  QoL score odds ratio vs placebo: 6.83
[4]; Week 12, 95% CI: 1.76, 10.98
  QoL score odds ratio vs placebo: 4.4
[4]; Week 16, 95% CI: 3.11, 21.18
  QoL score odds ratio vs placebo: 8.11
[4]; final assessment
  likelihood of a favourable QoL response compared to the placebo group: more than 8 times
[5]
  patients rated as having very good/good efficacy by the investigator: 73.2%
[6]; after end of Week 3 up to week 16
  recovery of testosterone concentrations: approaching baseline levels by week 8
[6]; by Week 3, two s.c. injections of 60 mg on Day 1 and Day 3
  mean testosterone concentrations, % of baseline: 58.8 % of baseline
[6]; up to 4 weeks
  subjects with testosterone suppressed to castrate levels: Less than 29%
[7]
  change in mean PSA concentrations compared to baseline: -0.27 (±1.46) ng/mL
[8]
  testosterone levels in the majority of trial subjects: below 0.5 ng/mL
